# From publication PMC7819943, “Rice protein-binding microarrays: a tool to detect cis-acting elements near promoter regions in rice”
# Chains of the proteins cited; added tags and fusions are not shown.
# UniProt Q0JBA9, entry or part of it: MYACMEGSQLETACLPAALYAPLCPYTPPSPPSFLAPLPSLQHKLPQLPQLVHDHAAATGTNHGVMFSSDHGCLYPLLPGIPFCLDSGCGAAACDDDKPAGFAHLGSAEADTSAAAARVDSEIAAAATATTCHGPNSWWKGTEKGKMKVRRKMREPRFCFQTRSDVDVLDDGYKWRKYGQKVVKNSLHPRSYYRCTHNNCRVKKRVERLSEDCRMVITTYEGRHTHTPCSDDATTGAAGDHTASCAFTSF
# The other results are listed elsewhere or left out.
# Target: OsWRKY34 (Oryza sativa, UniProt Q0JBA9 1-250)
# Test: protein-binding microarray (RPBM); PBS, 2% BSA, 51.3 ng/ul salmon testes DNA, 50 uM zinc acetate, 200 nM TF, 25 C, 1 h; high values mean tight binding
# Conditions: protein: recombinant; tags: N-terminal polyhistidine and DsRed monomer fusion (pET32a); label: CyDye5-dUTP incorporated in the synthesized complementary strand; 3' TTTTT single-stranded linker to array surface; dsDNA, one strand shown
# In short: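 Using Ni–NTA, transcription factors fused N-terminally to polyhistidine and DsRed were purified after expression in E. coli BL21-CodonPlus. These were incubated at 200 nM with a blocked, double-stranded custom Agilent array for 1 h at 25 °C in a buffer containing 50 µM zinc acetate, and the array was washed. The binding signal is per-feature fluorescence intensity (arbitrary units) on an Axon 4000B scanner.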
row,Sequence,binding signal
1,TGATTTTTTCTCACATGTTTGACCATTTGTCTTATTCAAACGGAGTCACCTAGTGCAG,10100 fluorescence intensity (a.u.)
2,ACTAGGGTTCTCTTCTCACTCCATCGCTAGCGGCGGCTCACGGAGTCACCTAGTGCAG,8340 fluorescence intensity (a.u.)
3,AACCCTTTCCCGCTGCTTCTGTTCGCCGCCGCCGTGCTCCCGGAGTCACCTAGTGCAG,9200 fluorescence intensity (a.u.)
4,TACGTCGTCCCATGCTACTGCTCCGGGCTCCAGCATCCACCGGAGTCACCTAGTGCAG,8770 fluorescence intensity (a.u.)
5,TTGCTCTCCTCTCTGGATTGATGTGTTCGTTTGGCCATTCCGGAGTCACCTAGTGCAG,8940 fluorescence intensity (a.u.)
6,GAGATGGTGGTGGCGGCGGGGCACGGCGGGCGGCGGAGGCCGGAGTCACCTAGTGCAG,11800 fluorescence intensity (a.u.)
7,TTTTCCTCTGTTGTTGATAATGTGCCGTTTTGACTGACTCCGGAGTCACCTAGTGCAG,8100 fluorescence intensity (a.u.)
8,AAACGGTCAACCCACTTTCCCACCCTCTCCATTTTTTACGCGGAGTCACCTAGTGCAG,11200 fluorescence intensity (a.u.)
9,TATATATATATATATATATATATATATATCCCAAAAATTGCGGAGTCACCTAGTGCAG,10900 fluorescence intensity (a.u.)
10,CCCCTAGTTGTAAAGCATTATTGGTTCTGTTTCTGCACTTCGGAGTCACCTAGTGCAG,8350 fluorescence intensity (a.u.)
11,CTACCCGATTGCAAGCTCATCGATGTCGATTTCATTCATCCGGAGTCACCTAGTGCAG,10300 fluorescence intensity (a.u.)
12,CTACTTACCCTTTTTAATGCAAGCATCAATCCATTGCTTTCGGAGTCACCTAGTGCAG,9470 fluorescence intensity (a.u.)
13,CATTCCGGTTGGTGTTTTTCGCTTGATTTGTACTACTATTCGGAGTCACCTAGTGCAG,18500 fluorescence intensity (a.u.)
14,TATCTGTCCTCTTCGTCATATATAACTCTCTTGACGAACTCGGAGTCACCTAGTGCAG,12500 fluorescence intensity (a.u.)
15,CCCACGCTTCCGGGCGCGCCTCCTTTTTGTCTTAACCAAGCGGAGTCACCTAGTGCAG,10400 fluorescence intensity (a.u.)
16,TCATACCAACTACATCCTCCTTGCTACATCAATTGTATTCCGGAGTCACCTAGTGCAG,8730 fluorescence intensity (a.u.)
17,CAGCTGTTCTGATCGCTTCTTGTGGCTTCTGTGCCGTGCTCGGAGTCACCTAGTGCAG,8440 fluorescence intensity (a.u.)
18,TGCCATATATCACCTGCAGGCACTACTAGTAACTCTCACTCGGAGTCACCTAGTGCAG,8830 fluorescence intensity (a.u.)
19,CCATTATCCGCCGCCGCCGCCGAGCATAGCCCATCGCACACGGAGTCACCTAGTGCAG,11600 fluorescence intensity (a.u.)
20,TTCCGCCTCTGCCTCGTCCAAGTCCAAGCCAACTACCTAACGGAGTCACCTAGTGCAG,8160 fluorescence intensity (a.u.)
21,CGGAATAATATATTGCCTATTAATCTATATTGTCAATTTTCGGAGTCACCTAGTGCAG,8480 fluorescence intensity (a.u.)

row,Sequence,binding signal
1,TTTTTGCAAGCTTTTCATCACATAGGCCACCACCCTCTTTCGGAGTCACCTAGTGCAG,8190 fluorescence intensity (a.u.)
2,AAACTTATCAATCATGCGTTTTCTTGTTTTCGTGGATCATCGGAGTCACCTAGTGCAG,10600 fluorescence intensity (a.u.)
3,CCCGTTCTAATTCAGTTTCTCCCTTTCTTACCGCATGTACCGGAGTCACCTAGTGCAG,8490 fluorescence intensity (a.u.)
4,GAGCCGTATATTTTCTGTCGACAAATATCCAATTATATTGCGGAGTCACCTAGTGCAG,10900 fluorescence intensity (a.u.)
5,CGTCGCGGCTATACGGCTATTATACCTACCAGCCACCACACGGAGTCACCTAGTGCAG,8930 fluorescence intensity (a.u.)
6,TCGTGAACCTTTTCGAGTGTAAACCACTCGGATTCTTTTTCGGAGTCACCTAGTGCAG,8580 fluorescence intensity (a.u.)
7,GCGGCTTAGTAACGTTTGTAGGAAGTTTAATGGACTTTTACGGAGTCACCTAGTGCAG,8580 fluorescence intensity (a.u.)
8,GGAGAGTTTGACCCGTGCGCTTTCCTCCCGGCTGGCTCGCCGGAGTCACCTAGTGCAG,8160 fluorescence intensity (a.u.)
9,GTCTGCGTCGTCAATGGCCACCTGTGTTCCTCTTGCTCTTCGGAGTCACCTAGTGCAG,9330 fluorescence intensity (a.u.)
10,AACTTGTTTGCAATTTTTTTTCCTGCTCTATCAATATAAACGGAGTCACCTAGTGCAG,9370 fluorescence intensity (a.u.)
11,TCAACCGTTTTCCCAAAGCTGACGCGATGCGGTACGACCTCGGAGTCACCTAGTGCAG,8510 fluorescence intensity (a.u.)
12,CTCTCAAATGTCTTTGTTTCCCGCCATTTTTTTGGCCATCCGGAGTCACCTAGTGCAG,8430 fluorescence intensity (a.u.)
13,CCGTCTGCTTTTATTCGAAACCCCAACTTATCGTGTGTATCGGAGTCACCTAGTGCAG,9850 fluorescence intensity (a.u.)
14,GACCATGAACAGTGTTTGCCGAAATTTTTGACCGGAGCTCCGGAGTCACCTAGTGCAG,9510 fluorescence intensity (a.u.)
15,CACCCGCTCTCCTCGCTGCGTCGCCGTCGCCTGCTCCTCTCGGAGTCACCTAGTGCAG,11000 fluorescence intensity (a.u.)
16,CTACCGCTGCTGCTGCTGCTACTACTACTACTCTCTCTCTCGGAGTCACCTAGTGCAG,8640 fluorescence intensity (a.u.)
17,AATTGCTTTGTTAAACTGTACAGGTATGCTGCTGTATTTGCGGAGTCACCTAGTGCAG,8460 fluorescence intensity (a.u.)
18,ATCCAACACCGCCCATCAATTGATCACGCAAATACTAAACCGGAGTCACCTAGTGCAG,12600 fluorescence intensity (a.u.)
19,AGGGCTTAAGGAGGGCGATGTGGCTGGTGGTAGTTGTCGTCGGAGTCACCTAGTGCAG,8340 fluorescence intensity (a.u.)
20,ACGTCCGATAGTTTTTGCCACATTCGCTTGCTTCATGCTCCGGAGTCACCTAGTGCAG,13400 fluorescence intensity (a.u.)
21,ACGCACCTTCATCTTCGCTCTCGCTTTCCCGTGTAAGCCGCGGAGTCACCTAGTGCAG,8650 fluorescence intensity (a.u.)

# Two entries drawn at random from the list so far, as already listed:
row,Sequence,binding signal
11,TCAACCGTTTTCCCAAAGCTGACGCGATGCGGTACGACCTCGGAGTCACCTAGTGCAG,8510 fluorescence intensity (a.u.)
14,GACCATGAACAGTGTTTGCCGAAATTTTTGACCGGAGCTCCGGAGTCACCTAGTGCAG,9510 fluorescence intensity (a.u.)
